Source: patent US20190224214A1, “HUMAN GHRELIN O-ACYLTRANSFERASE INHIBITORS” (SYRACUSE UNIVERSITY, priority 2016, published 2019)
For at least one compound, name, drawing or mass did not settle the structure.

Target: T1, hGOAT (Homo sapiens, UniProt Q96T53)
T1 construct: made in house; host or cells: Sf9 insect cells (membrane fraction)
T1 sequence (Q96T53 1-435): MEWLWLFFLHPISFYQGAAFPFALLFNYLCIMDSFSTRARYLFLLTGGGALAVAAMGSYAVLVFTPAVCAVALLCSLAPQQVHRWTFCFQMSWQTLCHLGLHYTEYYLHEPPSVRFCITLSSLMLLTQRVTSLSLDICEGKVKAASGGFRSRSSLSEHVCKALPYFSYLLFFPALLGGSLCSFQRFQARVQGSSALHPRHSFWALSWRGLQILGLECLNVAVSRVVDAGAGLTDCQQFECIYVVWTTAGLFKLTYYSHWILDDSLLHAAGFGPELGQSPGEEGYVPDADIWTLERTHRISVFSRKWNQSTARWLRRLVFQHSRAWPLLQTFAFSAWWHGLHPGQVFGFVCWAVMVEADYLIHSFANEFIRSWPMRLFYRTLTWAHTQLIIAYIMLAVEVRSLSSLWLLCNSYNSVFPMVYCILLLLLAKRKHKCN
Test: fluorescence-based in vitro hGOAT activity assay (ghrelin octanoylation, HPLC readout)
Format: biochemical
Description: hGOAT was expressed and enriched in insect (Sf9) cell membrane fractions using a previously published procedure.
Peptide substrates were labeled with acrylodan on a cysteine thiol and HPLC purified as previously reported.
hGOAT activity assays were performed using a modification of previously reported protocols. For each assay, membrane fraction from Sf9 cells expressing hGOAT was thawed on ice and passed through an 18-gauge needle 10 times to homogenize. Assays were performed with ˜100 μg of membrane protein, as determined by Bradford assay. Membrane fraction was preincubated with 1 μM methoxy arachadonyl fluorophosphonate (MAFP) and inhibitor or vehicle as indicated in 50 mM HEPES pH 7.0 for 30 minutes at room temperature. Reactions were initiated with the addition of 500 µM octanoyl CoA and 1.5 μM fluorescently-labeled ghrelin mimetic, GSSFLCAcrylodan, for a total volume of 50 μL, and were incubated for 3 hours at room temperature in the dark. […] The supernatant was then analyzed by reverse phase HPLC, as previously described. […]
For inhibition experiments, reactions were performed and analyzed as described in the presence of either inhibitor or vehicle (DMSO or ethanol) as appropriate. The percent activity at each inhibitor concentration calculated from HPLC data using equations 1 and 2: […]

C[C@]12CC[C@@H]3c4ccc(O)cc4CC[C@H]3[C@@H]1CCC2=O [estrone, reference compound]
inhibition of hGOAT octanoylation activity (in words): lack of hGOAT inhibition
